42 sequences from paper PMC7819943, “Rice protein-binding microarrays: a tool to detect cis-acting elements near promoter regions in rice” can be followed below.

Chains of the proteins cited; added tags and fusions are not shown.
UniProt Q0JBA9, entry or part of it: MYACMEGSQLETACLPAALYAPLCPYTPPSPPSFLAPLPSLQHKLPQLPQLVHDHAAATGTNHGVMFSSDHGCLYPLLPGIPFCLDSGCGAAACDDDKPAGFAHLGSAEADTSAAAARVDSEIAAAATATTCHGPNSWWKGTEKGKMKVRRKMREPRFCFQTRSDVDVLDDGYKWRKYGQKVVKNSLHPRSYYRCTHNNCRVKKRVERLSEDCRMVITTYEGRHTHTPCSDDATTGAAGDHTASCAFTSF

The other results are listed elsewhere or left out.

This assay concerns the target OsWRKY34 (Oryza sativa, UniProt Q0JBA9 1-250). Description: protein-binding microarray (RPBM); PBS, 2% BSA, 51.3 ng/ul salmon testes DNA, 50 uM zinc acetate, 200 nM TF, 25 C, 1 h; high values mean tight binding. As to conditions: protein: recombinant; tags: N-terminal polyhistidine and DsRed monomer fusion (pET32a); label: CyDye5-dUTP incorporated in the synthesized complementary strand; 3' TTTTT single-stranded linker to array surface; dsDNA, one strand shown. In outline:
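Per-feature fluorescence intensity (arbitrary units), read on an Axon 4000B scanner, is the binding signal. Transcription factors carrying an N-terminal polyhistidine tag and DsRed fusion were expressed in E. coli BL21-CodonPlus and purified on Ni–NTA. A custom Agilent array, made double-stranded by primer extension with Cy5-dUTP and blocked with 2% BSA, was incubated with 200 nM protein in PBS, 2% BSA, salmon testes DNA and 50 µM zinc acetate at 25 °C for 1 h and then washed.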
Turning to “AATGTTTTCTTTCTTTCCTAGGTGGGTTTTTTTGGGCCCACGGAGTCACCTAGTGCAG”, the binding signal is 9780 fluorescence intensity (a.u.).

For the sequence “ATTTCCGTTATCATACTTTACGAACTACTACACAATATATCGGAGTCACCTAGTGCAG”, the binding signal was 9300 fluorescence intensity (a.u.).

For “CGGGGTTGTTGGGGCAGCATCCAGGGCAAGTCCAGTGAAGCGGAGTCACCTAGTGCAG”, the binding signal is 9950 fluorescence intensity (a.u.).

As to “GACTGATCGCCGCTACCCCTACACGGGGAAACCAATTTTTCGGAGTCACCTAGTGCAG”, the binding signal was 8530 fluorescence intensity (a.u.).

Take “GGTCCGACCTTTTATTTTGCTTCCAAGTGCCACATCACCGCGGAGTCACCTAGTGCAG”: the binding signal is 8260 fluorescence intensity (a.u.).

For the sequence “ACGTATTTGTGAGGGGATTTGGTACCATTACATCTGTTTTCGGAGTCACCTAGTGCAG”, the binding signal was 8192 fluorescence intensity (a.u.).

As for “TGAAGAACGACGCACAACCACCCGCGGCTCAACTCGTCCACGGAGTCACCTAGTGCAG”, the binding signal is 8970 fluorescence intensity (a.u.).

In the case of “ACATAGTTTTCTTCTCTTTCCTCATTTATTCACTTGCCACCGGAGTCACCTAGTGCAG”, the binding signal is 9390 fluorescence intensity (a.u.).

On to “AACCCCTATGCTTCCTCGGTCATCCATGCGTCTATATTGTCGGAGTCACCTAGTGCAG”, for which the binding signal was 9370 fluorescence intensity (a.u.).

On to “GTCATCTCACGGAGCGGGTTGGAGTCCATTTAGATCTATACGGAGTCACCTAGTGCAG”, for which the binding signal is 8500 fluorescence intensity (a.u.).

Turning to “CTGTCTTTCGTCCGCGAAAATTTTCCATTCTTGCGCTTCCCGGAGTCACCTAGTGCAG”, the binding signal was 9530 fluorescence intensity (a.u.).

For “GTTGGTTTTTACATTTGTTTGCTCGAGTCATATATGTCGTCGGAGTCACCTAGTGCAG”, the binding signal is 9010 fluorescence intensity (a.u.).

For the sequence “CGATGCCACCGCCCCTGCCTGCTTTGCCCGCCGCCGCTCTCGGAGTCACCTAGTGCAG”, the binding signal is 10400 fluorescence intensity (a.u.).

Regarding “AGCCAGAGGGGAGGGAGCGGGTAGGGTTTTACCTCCTCCCCGGAGTCACCTAGTGCAG”, the binding signal was 8250 fluorescence intensity (a.u.).

Regarding “CGCCCCGTCGCCACTCTGTTGCCTCCACCAATCTCCTGCACGGAGTCACCTAGTGCAG”, the binding signal is 10100 fluorescence intensity (a.u.).

Consider “TCTGTATATAAGGCCTGATTTAGTTCCCAAATTTTTTTTCCGGAGTCACCTAGTGCAG”, for which the binding signal is 8100 fluorescence intensity (a.u.).

For the sequence “ATCGCACGCAACGAAGACAGACCGTCAGCCTTCACTCACTCGGAGTCACCTAGTGCAG”, the binding signal was 9720 fluorescence intensity (a.u.).

On to “TCTAGGCATGGTTCAGTAGTCAAAGCAACTTCGTCACTTTCGGAGTCACCTAGTGCAG”, for which the binding signal is 9650 fluorescence intensity (a.u.).

For the sequence “TCGTTTTAATTGACCACGTACTCAATCCGGTACTCTCCTTCGGAGTCACCTAGTGCAG”, the binding signal is 8330 fluorescence intensity (a.u.).

As to “TGTTTGGATGATTTTATGGATGATCACTTCTCTTTATTTACGGAGTCACCTAGTGCAG”, the binding signal is 8320 fluorescence intensity (a.u.).

As to “CCATGGCGGTGTGTCTCCTCAACTTTGCTACTCCAGTTGCCGGAGTCACCTAGTGCAG”, the binding signal was 8040 fluorescence intensity (a.u.).

“TTCTGCTACTACCACATATTCAGTTCTTTTACCAACTTTACGGAGTCACCTAGTGCAG”: the binding signal was 10800 fluorescence intensity (a.u.).

As to “ATACTGCTGTTCGTAACATCCTTGCAGCTGCAGCCCACAACGGAGTCACCTAGTGCAG”, the binding signal is 9450 fluorescence intensity (a.u.).

Take “ACTATAATGATTTCCTGTGTGGTTGATCTTAGCCTCTAGTCGGAGTCACCTAGTGCAG”: the binding signal was 8560 fluorescence intensity (a.u.).

Consider “ACTTGCTACAGTTGGACTCTTTGATATTCATTTCCATGTCCGGAGTCACCTAGTGCAG”, for which the binding signal is 11600 fluorescence intensity (a.u.).

For the sequence “TAGGTTATCATCTTTGCCTCCTGCCGCCATAGTAGTCGCCCGGAGTCACCTAGTGCAG”, the binding signal was 8060 fluorescence intensity (a.u.).

Take “CGACCGATGCGGTTGGGTCGGGTCGGGTCGGGTCGGATCCCGGAGTCACCTAGTGCAG”: the binding signal was 10100 fluorescence intensity (a.u.).

Turning to “CCGTCGTCGTCTTCGTCTTCCTCAGTTTATCTCCATTTCTCGGAGTCACCTAGTGCAG”, the binding signal was 13800 fluorescence intensity (a.u.).

Regarding “TCGGCAACATAGATTCCCATTTATATCCCCTTGTAGTACTCGGAGTCACCTAGTGCAG”, the binding signal was 8720 fluorescence intensity (a.u.).

With “TAAATCATGACTCAGGGCAGGCAGGGTTCACTTTTTTTTTCGGAGTCACCTAGTGCAG”, the binding signal was 9230 fluorescence intensity (a.u.).

For the sequence “GGTCGTTTGTTCTTTTGTCTTGCCTATTATGCTCCGTCATCGGAGTCACCTAGTGCAG”, the binding signal is 15100 fluorescence intensity (a.u.).

Take “ACACGCCTTTGTTGGATTCAAATCCAATTTCTCTCGTTCACGGAGTCACCTAGTGCAG”: the binding signal is 9390 fluorescence intensity (a.u.).

As for “GAACATTCTTTTTCCACTTTTCACTCGTCGTGTTTAAATGCGGAGTCACCTAGTGCAG”, the binding signal was 10400 fluorescence intensity (a.u.).

Consider “ACTGCGTTGCTTTATATCTACTTATATCCGATTCCATGTTCGGAGTCACCTAGTGCAG”, for which the binding signal was 12000 fluorescence intensity (a.u.).

Turning to “GATGTTCAGTATTGATTCAAGTTGCAGTGGGGTTTATTGGCGGAGTCACCTAGTGCAG”, the binding signal was 8070 fluorescence intensity (a.u.).

For the sequence “GTTTGTCGGACTTCTCTCCCTCACCTCGCCGGCGGCAAGGCGGAGTCACCTAGTGCAG”, the binding signal was 9120 fluorescence intensity (a.u.).

Turning to “TGCGTGTCCCATCTCACCCTCACACCGTCACACAACAAGCCGGAGTCACCTAGTGCAG”, the binding signal was 9020 fluorescence intensity (a.u.).

“CAAGGATGCCCACACTTGTTATAACTTTCTCAGAGCGATCCGGAGTCACCTAGTGCAG”: the binding signal is 8030 fluorescence intensity (a.u.).

Consider “CGTGTATAGTTTGGCAATGCAAATATTTGTGGTCATTTTCCGGAGTCACCTAGTGCAG”, for which the binding signal is 11900 fluorescence intensity (a.u.).

Consider “CGTTTGACCGTTCGTCTTATTTGAAAATTTTTTATGCTTACGGAGTCACCTAGTGCAG”, for which the binding signal was 10100 fluorescence intensity (a.u.).

In the case of “GCTCCGTGCCGCCGGCTTCGCGCGCCACTGCCTCGCCGGCCGGAGTCACCTAGTGCAG”, the binding signal is 8280 fluorescence intensity (a.u.).

Turning to “GTAGGGTGTTAGACTTGTCTTGGTGCTTGCCAGTACGTTACGGAGTCACCTAGTGCAG”, the binding signal is 11800 fluorescence intensity (a.u.).
